Out of some 53,000 sequences screened, about 3,700 (7%) were called active.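 Rule for the calls: active = gene knockdowns whose robust z-score for IL-1 alpha signal is at least 2 or at most -2, so actives lie on both sides; inactive = the rest.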 This is one part of the list.

A short description of the experiment: Components of the Cytosolic LPS Sensing Pathway: Gene Identification via Genome-wide siRNA Screen. The following applies: RAW264.7 macrophages, IL-1a HTRF, actives lie on both sides, screened at 100 nM (by protocol), cells primed 5 h with Pam3CSK4 first. The text has this: Non-canonical inflammasome activation by cytosolic LPS is a critical component of the host response to Gram-negative bacterial infection, however we lack a comprehensive understanding of the cellular processes that control this pathway. Here we describe a genome-wide siRNA screen to identify genes regulating the mouse macrophage IL-1 alpha response to cytosolic LPS.
RAW264.7 cells were maintained in complete DMEM media, comprising DMEM with 4.5 g/L glucose, 10% FBS (Gemini Bio-Products, West Sacramento, CA), 2 mM Glutamine (Lonza) and 20 mM HEPES (Lonza), hereafter complete DMEM.
The RNAi screen was conducted in 384-well format using the Ambion Silencer Mouse Genome siRNA Library (#4391425), which consists of three unique, nonoverlapping, nonpooled siRNAs for each of 17,000 gene targets. siRNA reagents ([…]) were stamped into 384-well white flat-bottom microplates (Corning, 3570) using a Velocity11 VPrep liquid handling system (Agilent) integrated into a BioCel robotic platform (Agilent) in columns 1-22, leaving columns 23-24 empty for negative (Ambion, Negative control #1) and positive (mouse Casp4) controls, respectively. The median value of each plate's negative control column was used to normalize sample wells, and the positive control was used to assess transfection efficiency and assay performance.
Lipofectamine RNAiMAX Transfection Reagent ([…]; Invitrogen) was added in […] serum-free, antibiotic-free media to plate wells using a Thermo Scientific Matrix WellMate and Microplate Stacker. Plates were incubated for 45 min at room temperature to allow for the sufficient formation of siRNA-lipid complexes. Cells were seeded at a density of 1x10^4 cells per well in 20 microL media containing 20% (vol/vol) FBS without antibiotics. The final concentration of siRNA in each well was 100 nM. Cells were cultured for 48h at 37 degrees C in 5% CO2 before addition of […] of TLR ligand Pam3CSK4 for 5 hours. The medium was then removed, replaced with […] growth media and cell were transfected with […] of LipidA and TransIT-TKO (Mirus) for 24 hour. At the end of the LipidA treatment, […] of supernatant was transferred to a 384 Greiner Bio-one non-binding low volume plate and […] of IL-1a HTRF reagent (Cisbio, 62MIL1APEH) was added and incubated at room temperature overnight. The plates were read on an EnVision plate reader (PerkinElmer). Cell viability was measured by adding 20ul Cell Titer Glo to the original plate and running a luminescence read on the EnVision. The quantified IL-1a signal for each siRNA gene-targeted well was divided by the median of the negative control wells and multiplied by 100 to achieve a negative control normalized value for each well/siRNA. This normalized value was then used to generate a robust z-score by first taking the log of each value and then by subtracting the median and dividing by the […].
A general note: In TR-FRET formats the signal depends on donor and acceptor labels being close together.
For the sequence CCUGGUAUACGUUUACAAUTT against Lama4, the z-score was inactive: 0.773. Regarding GCGAACCCUAAGUAAGAAGTT against U2surp, the z-score was inactive: -0.989.

For GGUUGCUGUGUUGAAGAAATT against Ttbk2, the z-score was inactive: 0.446. The value for GCUAUUAAUAUCCUGGUCCTT against Slc7a2 was inactive: -0.543; that for GGAUUGAAGUCCCUUUACUTT against Zdhhc16 was active: 2.27. The value for GCCCACCAUGUCGUAUGUGTT against Hils1 was inactive: -0.846.

As to GGCCGCAUACUGAUGAAAGTT against Scgn, the z-score was inactive: -0.395. The value for GGAACAGCAAACUGAAAACTT against Chia1 was inactive: 0.216; that for GCAUACAAUCAUGUAAGAGTT against Adprh was inactive: 0.0994; that for “GCCUAGCAUUCUUGUGCAATT against 1700093K21Rik” was inactive: 0.883.

For the sequence GGACCGAGUACACCAUGAGTT against Calu, the z-score was inactive: -1.02. The value for GGACUUCAUGGCUAGUUUCTT against B4galt4 was inactive: -0.14; that for GCACCGACCACCAAAUCUATT against Prol1 was inactive: 0.65; that for GGAGUUUGACCGGAAGUACTT against Arhgap8 was inactive: -2. The value for GCACAUACAGAGCUCGUCUTT against Zkscan6 was inactive: -0.471. The value for GGUUUUUGAAUUCCAGUUGTT against Akr1c14 was inactive: 0.571. In the case of GGAUUGAAGAGAAUUUACCTT against C2cd5, the z-score was inactive: 0.445. As to GCUAUUCGGCUAAAGCAGCTT against Etfdh, the z-score was inactive: -0.285. Take GCCAUGCUAGUCUUAGAAATT against Zfp781: the z-score was inactive: -1.66.

Take GCCCAUGGAUACUACUUCATT against Syncrip: the z-score was inactive: 0.411. On to GAGAGAGGGAAUUUGCUCCTT against Pcdhb8, for which the z-score was active: 2.6.

As to GGUCAGUCAUUUUUCACUUTT against Zpld1, the z-score is inactive: -0.0758.

For GGCAUUGUGAUUCUUUGUCTT against Tal1, the z-score is inactive: -0.39. As to GGAGUCAGUGAGGUACAUUTT against Emc1, the z-score was inactive: 1.91. As to GGAAAAAACGCACCAGCAUTT against Pou2f1, the z-score is inactive: 0.0271. The value for GGGCCAAUAUGUUUGAGUATT against Fam83g was inactive: 0.978; that for CCUGUCUUUCUUUGAUCAATT against Tspan8 was inactive: 1.14.

For the sequence CCUGAUCUCAGCCUAUACUTT against Rapgef6, the z-score is active: -2.26. In the case of GGUCCUUGGAGAAGAUAUUTT against Tmem234, the z-score was inactive: -0.686. The value for GGUACGAAAAAUUCCUACGTT against Ang4 was inactive: 1.48; that for GGAAGGUCUUCGAGAUUUUTT against Gpr75 was active: 4.56; that for GGGUUCUGUUGACUAACUATT against Ube2k was inactive: 1.12. Turning to CGUGUAGGCAGAAUAGUUATT against Ankrd16, the z-score is inactive: -1.11. The value for GACUAACCAGAUGAAAGUCTT against Vmn1r11 was inactive: -0.66; that for CCCAACUUCCGAAAGCUGUTT against Slc6a1 was inactive: -0.518.

Turning to GGAUCAUACAAUAUCCUUUTT against Olfr466, the z-score is inactive: 0.227. As to GCCGCUUUCAUUAAGGCUGTT against Pdcd10, the z-score was inactive: 0.835. The value for GGCUGGGAAAAAAAAAGAATT against Ifi205 was inactive: 0.704; that for GCUUACCAAUUGAAAACUGTT against Terf1 was inactive: -0.142; that for GGCAAGCUUCCAGAUCGAATT against Adam23 was inactive: 0.0113.

For CGUUGUCAGUGUAAAUAUUTT against Osbpl6, the z-score was inactive: -0.83. Take GGUGUUGAACCUCAUCCAGTT against Tom1: the z-score is inactive: 0.491. The value for GGCAUGGCUGGCAAAAACATT against Ppp1r15a was inactive: -1.85; that for GGUUUAUAGGCCUUCUUCCTT against Flot2 was inactive: -0.763; that for GGUCUUUGGAAAAGACACUTT against Gramd3 was inactive: 1.46. The value for “GGCUGUUCUACGAAGAAAATT against 4921517D22Rik” was inactive: 0.231; that for GGGAAUUCACACUGUCUGGTT against Tmem176a was inactive: -1.73; that for GCUCAAAUAACUCCACCACTT against Pola1 was inactive: -1.73. With GGAUAAAAAGGAUAAGAGCTT against Prps1l1, the z-score is inactive: -0.44.

As to CCUACAUCCUCGCUUUUGCTT against Ptcd2, the z-score was inactive: -0.106.

Take GGAGGCCCAAUGAUUAGCATT against Ntan1: the z-score was inactive: -0.151. The value for GGCAACUUGCUCAUCAUUGTT against Olfr1356 was inactive: -0.142; that for CCUAUACCGAGCAAACAUCTT against Crebbp was inactive: -0.869; that for GCUCACCACGCUAAACUGUTT against Trpm6 was inactive: 1.44.

As for CCGGCUCAUCCAUUAUUGGTT against Atp6v0b, the z-score was inactive: -1.08. The value for “GGUUUUCUACAGGAGAGACTT against 9430015G10Rik” was inactive: 1.33; that for GUAGAGGUUAUAUAGCAGATT against Ms4a6d was inactive: 0.494; that for GGAGGACUGCCAGAAAUACTT against Myd88 was inactive: -0.0402. The value for GGCCUCAGCAUUUAUCUGGTT against Rtca was inactive: -0.782. The value for GCUGUAAGGAGGAACUUCUTT against Btg1 was inactive: -1.03; that for “GGAGUAUGCGUGUUGCCAATT against 1700018B08Rik” was inactive: -1.65; that for GGUAAAUGACAACUUUCUUTT against Slco6b1 was active: 2.92.

GGAGGUUCAGCAACGCAUUTT against Prss43: the z-score is inactive: 0.0194.

GGUGAAGCAAAACGGAGGATT against H2-M10.1: the z-score was inactive: 0.512. The value for GGACAGUUCUCUCUGCACUTT against Prss50 was inactive: -0.465. The value for GGUGUUUGUUAACUACUCGTT against Fam171b was inactive: 0.592.

On to GGCAGUAGCAUUUAGAAGGTT against Socs3, for which the z-score was inactive: -0.628. The value for GGAUUUUCCUGAUGAGGUUTT against Cdk5rap1 was inactive: -0.0503. The value for GUGCAGGUCCUAAUCUGAATT against Asb1 was active: 2.15.

GGCUUUCAAGCUAACUGAUTT against Sf3b2: the z-score is active: -2.39. The value for GGGAAUUCCUCAGUUCAAATT against Adam7 was inactive: 0.27. Take CCACACUGUAUAAUACAAUTT against Il20rb: the z-score is inactive: 1.82. The value for GAGGCUGUUAGAGAAAACGTT against Frat2 was inactive: -0.773; that for “GGAGGCUCAAGUCCAUCACTT against A930104D05Rik” was inactive: -0.36; that for GGAAGUGAUUGAAAUGGUGTT against Ror1 was inactive: -0.893. The value for GGAGAAAAAACUAAAGGAGTT against Abca3 was inactive: -0.0651; that for GGUAGAAGAGAGCUUCAACTT against Alg12 was inactive: 0.411; that for CGUAUGCAGAACAACAUUUTT against Klhl2 was inactive: 1.77. The value for GGUCUUUUGGUUCCAGAUCTT against Ak4 was inactive: 0.292.

Regarding GGAAUCGUUUUUGCUUAGATT against Rsrc1, the z-score is inactive: 1.31. The value for GCAGUGUAGAACUAGGCUGTT against Taf1c was inactive: -0.154; that for “GAAUCUAAAGAUGAACACCTT against 0610009B22Rik” was inactive: 0.8. The value for GCAUGAGAGGUUUCAGUAUTT against Rnf150 was inactive: 0.454; that for GCUCCUGAUCAAAUAAAGUTT against Ldhb was inactive: 0.279; that for GGAUAAAUGUCACAGAGCUTT against Cd200 was inactive: -0.093. The value for CGAUAUAGAAUUGUUACAGTT against Nf1 was inactive: 0.922; that for GGAUUUCAAGACAUACAAGTT against Tsnaxip1 was inactive: 0.292. Consider GCCCGAAUACAGGAAGAUCTT against Hspg2, for which the z-score is inactive: 1.42. The value for GGCCAGCAGUGUUUUUCUUTT against Acvr1 was inactive: -0.29; that for GGGAGAAUUGUAGAUUAUUTT against Myo10 was inactive: 0.475; that for GGUAUUGAAAUGGAAAAGGTT against D6Wsu163e was inactive: -1.2.

Regarding GCAGGUGGAUCUUAUAUGGTT against Cabin1, the z-score was inactive: -0.405.

For CGUCUAUUCGUAAUGAUUUTT against Tmbim7, the z-score was inactive: -1.01.

On to CCUACAAACCUGCUUAUCCTT against Srebf2, for which the z-score was inactive: -0.424. Take CGGUGUAUCAAGUAAGGUGTT against Aup1: the z-score is inactive: 0.179. For the sequence ACAGUGUCUGGCAUCAAACTT against Mrgpra5, the z-score is inactive: 0.205. The value for CCAUAUGCAACCGUUACUUTT against Ciz1 was inactive: 0.441. The value for GGCCCACAGUUUGUGACUGTT against Larp7 was inactive: -1.1; that for GGAUGCCCAUCGUUAUGGUTT against Dis3l was inactive: -0.692; that for GGAACUGAAGGGACAGGAATT against Uchl1 was inactive: -0.862.

For GGUGGACUCUCUCUCAGAATT against Scara3, the z-score was inactive: 0.496. The value for CCUGGUGCCUUUAUCUACCTT against Ctxn1 was inactive: 0.907; that for CCUAAAUUCGGUUUGAAUCTT against Fat1 was inactive: -0.0213; that for GGUGCUCUGUAUAAUUGGUTT against Gm11487 was inactive: 0.178.

In the case of GGUUCCGAAUGGAGACUUGTT against Cypt3, the z-score is inactive: 1.46. For GGGAUUCCUGAAGCUUCUCTT against Serpinb9b, the z-score is inactive: -0.151.

Values taken from PubChem BioAssay AID1508600 (Functional Genomics Laboratory (NCATS/FGL), 2020).
